In US20080044436A1, “Method for Screening and Compositions for Treating Cancers” (priority 2004, published 2008):
At least one compound was matched to its structure with a doubt left.

Key:
[1] = test system: TReP-132; assay: RNase protection assay of TReP-132 expression in MCF-7 cells; assay type: cell-based, human; conditions: MCF-7 cells treated for 6 days with 10 μM estradiol
[2] = test system: MCF-7 cells; assay: MCF-7 cell proliferation; assay type: cell-based, human; conditions: MCF-7 cells treated for 6 days with 10 μM estradiol

Compound: C[C@]12CC[C@@H]3c4ccc(O)cc4CC[C@H]3[C@@H]1CC[C@@H]2O [estradiol]
- TReP-132 expression [1]: marked decrease
- cell proliferation [2]: concomitant increase
